Measured values published in article doi:10.1101/2025.08.21.671216.
Results are given in words; binding and its absence hold for the method and conditions named. In cells and extracts the contact can be indirect. Some results given as binding are weak or reduced against the parent protein; the word gives no strength. Sequences can lack the tags named with a protein.

Protein sequences, listed by entry. Tags and fused reporters are not part of them.
UniProt B9EJS2: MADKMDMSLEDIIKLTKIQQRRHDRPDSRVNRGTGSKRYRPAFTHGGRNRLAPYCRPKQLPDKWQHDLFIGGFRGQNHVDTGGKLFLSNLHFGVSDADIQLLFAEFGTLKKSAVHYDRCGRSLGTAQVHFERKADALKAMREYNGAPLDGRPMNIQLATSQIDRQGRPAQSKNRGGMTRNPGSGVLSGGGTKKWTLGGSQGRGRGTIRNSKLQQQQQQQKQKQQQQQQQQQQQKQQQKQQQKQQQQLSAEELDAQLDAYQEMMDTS

Target: T1, HA tag-fused NXF1 (UniProt Q99JX7)
T1 sequence: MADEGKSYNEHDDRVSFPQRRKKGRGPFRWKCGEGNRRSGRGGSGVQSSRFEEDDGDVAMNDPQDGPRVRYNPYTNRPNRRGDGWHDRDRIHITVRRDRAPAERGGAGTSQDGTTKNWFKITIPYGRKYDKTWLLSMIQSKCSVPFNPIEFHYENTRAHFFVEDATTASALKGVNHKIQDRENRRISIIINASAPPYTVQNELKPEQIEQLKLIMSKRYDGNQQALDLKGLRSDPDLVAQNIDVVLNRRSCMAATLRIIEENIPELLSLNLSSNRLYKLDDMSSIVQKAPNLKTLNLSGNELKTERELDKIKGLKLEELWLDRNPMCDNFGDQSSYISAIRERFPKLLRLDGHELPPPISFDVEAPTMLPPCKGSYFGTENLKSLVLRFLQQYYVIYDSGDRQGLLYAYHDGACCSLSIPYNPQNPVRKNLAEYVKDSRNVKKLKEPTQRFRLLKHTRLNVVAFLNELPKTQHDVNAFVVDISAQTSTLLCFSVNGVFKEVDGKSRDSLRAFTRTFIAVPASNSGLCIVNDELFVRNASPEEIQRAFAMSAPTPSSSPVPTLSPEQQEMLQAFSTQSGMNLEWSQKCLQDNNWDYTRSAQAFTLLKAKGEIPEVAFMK
Assay: co-IP

binding: binds
Substance: 3FLAG-fused REFEE (GM4340) (from UniProt B9EJS2 1-266)
